# Library screening results

The values are deposited in ChEMBL (CHEMBL3988442, “University of Dundee, Small-Polar-MMV Screening Library” (2021)).

A: 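Whole-cell assay for inhibitors of Mycobacterium tuberculosis growth, labelled Cornell in the record; the read-out is not stated. The concentration is filed as 10 mM, unlikely as a test dose, so the dose is not known. The record gives no direction; compounds strong in two other growth screens of this library score well above the rest, so higher reads as stronger inhibition. Size under these conditions: about 53,000 compounds, about 900 of them at 50% or above in at least one test.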
B: 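Assay on Mycobacterium tuberculosis, filed only as a heat shock assay from Cornell; the read-out is not stated. The concentration is filed as 10 mM, unlikely as a test dose, so the dose is not known. Direction is inferred from retests: higher values go with stronger inhibition. Of about 69,000 compounds tested this way, about 930 (1.4%) reached 50% or more in at least one test.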

Each number is a percent effect as filed. How 0% and 100% were set is not recorded. Most values in the screen are low, and negative values occur. The compounds are a random part of those screened. A dash means the value is not listed here; it may have been measured.

Compound,A,B
CCOCC(=O)N1CCC(c2nc(-c3cccnn3)no2)CC1,-1.671,8.585
CCC(C)c1noc(C2CCN(C(=O)c3cccs3)CC2)n1 (stereo not shown),11.62,3.569
CCC(C)[C@H](NC(=O)c1cc(Br)ccc1-n1cnnn1)C(=O)OC (stereo partly shown),-,-17
Cc1cc(CN(C)CCC(O)c2ccccc2)nn1C (stereo not shown),3.138,0.01185
Cc1cc(C)c(CNC(=O)NCc2ccc3c(c2)OCCO3)c(=O)[nH]1,-,-0.5305
O=C(NCCNC(=O)C1CCN(CC(F)(F)F)CC1)c1ccoc1,-166,-5.959
[H][C@@]12CN(Cc3ccccc3F)C[C@]1([H])OCCN2c1ncccn1,24.64,5.984
Cc1cc(C(=O)N2CCc3[nH]nc(-c4ccc5c(c4)OCO5)c3C2)no1,-3.169,-4.296
[H][C@@]12CC(=O)N(C)[C@@]1([H])CCN2S(=O)(=O)Cc1ccc(C)cc1,-14.39,-13
O=C(Nc1ccc(-c2csnn2)cc1)N1CC[C@H](O)C1,-35.4,-6.635
O=C(c1ccoc1)N1CCCC1C1CCN(Cc2ccccc2)CC1 (stereo not shown),11.12,-15.46
CCN1CCC(c2nc3ccc(NC(C)C)cn3n2)CC1.O=C(O)C(F)(F)F,12.14,18.8
O=C(NCc1ccccc1)C1CN(c2ccccn2)CCO1 (stereo not shown),-1.46,-11.44
Cc1ccc(S(=O)(=O)NC[C@H]2OC[C@@H](NCc3ccncc3)[C@@H]2O)cc1,6.579,-23.5
Cc1ccccc1C(C(=O)NCCSC(C)C)N(C)C (stereo not shown),29.49,-15.59
CC(C)C(=O)NCc1ccc(N2CCCC2)nc1,-,11.96
O=C(c1csc(-c2cccs2)n1)N1CCCC1Cn1cccn1 (stereo not shown),28.27,2.678
Cc1cnn(CC(C)NCc2csc(-c3cnn(C)c3)n2)c1 (stereo not shown),-,-23.56
Cc1ccc(C2CCCN(S(C)(=O)=O)C2)nc1 (stereo not shown),6.653,8.906
CCS(=O)(=O)N1CCC(NCC2CNc3cc(C)nn3C2)CC1 (stereo not shown),-,-8.203
CC(C)(C)NC(=O)c1nn(C2CCS(=O)(=O)C2)c2c1CCCC2 (stereo not shown),11.04,4.775
CNC(=O)Cc1ccc(NC(=O)NC(C)C(C)C)cc1 (stereo not shown),-42.39,-1.45
CC(=O)NC(C)C(=O)Nc1ccc(OCc2cccc(F)c2)cc1C (stereo not shown),-31.59,8.814
COCCC1(CO)CCCN(C(=O)c2cc(=O)[nH]c(=O)[nH]2)C1 (stereo not shown),3.93,-12.83
O=C(OCc1ccccc1)C1CCCN1Cc1nc(C2CC2)no1 (stereo not shown),45.11,-14.01
CCS(=O)(=O)CCSc1ccc(Br)cc1,12.19,16.2
Cc1cc(Cl)ccc1S(=O)(=O)NCC(C)N1CCN(C)CC1 (stereo not shown),-,-26.57
Cn1cc(CNc2cnn(CCO)c2)c(-c2ccncc2)n1,-5.559,5.165
CC(C)c1nnc2ccc(N3CCC(C(=O)O)CC3)nn12,0.3362,-22.82
O=C(NCCCN1CCOCC1)c1cc(-c2ccc3c(c2)CCO3)n[nH]1,-,9.423
Cc1nnc2n1CCN(C(=O)C1CCC(n3cccc3)CC1)C2 (stereo not shown),9.483,-36.19
O=C(NCC(=O)N1CCCCC1)c1sccc1C1CC1,-6.526,-19.8
Cc1cnn(CCNCc2cccc(C#N)c2)c1,-,2.579
O=C(Nc1cccc(OCc2cccc(F)c2)c1)C1COCCO1 (stereo not shown),108,20.59
c1ccc(Cc2noc(CN3CCc4cncnc4C3)n2)cc1,-5.249,7.096
CN(CC1CC1)S(=O)(=O)c1ccc(C(F)(F)F)cc1C#N,32.81,0.9973
C[S+]([O-])c1ccc(CNc2ccc(F)cc2OC(F)F)cc1 (stereo not shown),-7.215,2.341
COc1ccccc1OCc1cc(C(=O)N2C[C@@H](C)O[C@@H](C)C2)n[nH]1,-32.54,4.729
CCOc1ccc(N2CCCN=C2NC(=O)c2cccc(OC)c2)cc1,-,10.41
CCN(CC)c1nc(Nc2cccc(C(C)O)c2)nc2ccccc12 (stereo not shown),104.6,99.47
CCOCCc1nc(Cc2ccccc2)n[nH]1,-,4.779
CCN1N=C(C(=O)N2CCCC(c3nc(C)cs3)C2)CCC1=O (stereo not shown),-54.63,1.671
CC(C)C(C)NC(=O)Nc1ccccc1CN1CCOCC1 (stereo not shown),27.62,4.865
O=C(O)C(F)(F)F.O=C(O)C(F)(F)F.O=c1ccc2c(n1Cc1cccnc1)CCN(C1CCOC1)CC2 (stereo not shown),-6.622,-4.984
CCc1nc(C2CCCN2Cc2nnc(C3CCC3)o2)no1 (stereo not shown),-,-7.115
OCc1cn(CC2CCN(C3CCSC3)CC2)nn1 (stereo not shown),-5.489,-5.021
CCn1c(CN2CCOC(Cn3cncn3)C2)nc2c(F)cccc21 (stereo not shown),-25.32,2.176
Cc1nsc(NC(=O)N2CCCCC2CCCO)n1 (stereo not shown),-15.97,15.37
O=C1NCC(C(=O)N(Cc2cccc(Br)c2)C2CC2)N1 (stereo not shown),-12.56,-2.307
CCOc1ccccc1N1CCN(C(=O)NCc2cc[nH]n2)CC1,-20.55,-35.38
COCc1nc2cc(NCc3sc(C)nc3C)ccc2o1,97.37,9.475
COc1ccc(N2CCCC3(C2)CN(c2nncs2)CCO3)cc1 (stereo not shown),-24.51,5.504
COCc1cccc(NS(=O)(=O)c2cc(C(=O)O)cs2)c1,18.62,20.32
CCc1ccc(C(=O)N2CCC(c3nncn3CC)CC2)s1,-,-1.883
CCOc1ccccc1OC1CCN(C(=O)c2cnsn2)CC1,-,-10.04
CC(O)C1CCN(c2cc(Cl)ccc2C#N)CC1 (stereo not shown),-,-5.187
c1ncn(CC2CCCN2Cc2csc(C3CCCCC3)n2)n1 (stereo not shown),-,8.788
Cc1nn(C)c2c(=O)n(Cc3ccccc3)nnc12,-,-18.73
COc1ccccc1OCc1cc(C(=O)N2CC(O)C2)n[nH]1,-3.624,1.862
CCC(C)(C)C(=O)N1CCN(C2=NCC(C)S2)CC1 (stereo not shown),1.298,-1.847

7 of the entries, repeated:

Compound	A	B
O=C(c1csc(-c2cccs2)n1)N1CCCC1Cn1cccn1 (stereo not shown)	28.27	2.678
COCCC1(CO)CCCN(C(=O)c2cc(=O)[nH]c(=O)[nH]2)C1 (stereo not shown)	3.93	-12.83
O=C(NCCNC(=O)C1CCN(CC(F)(F)F)CC1)c1ccoc1	-166	-5.959
CC(C)C(C)NC(=O)Nc1ccccc1CN1CCOCC1 (stereo not shown)	27.62	4.865
c1ccc(Cc2noc(CN3CCc4cncnc4C3)n2)cc1	-5.249	7.096
CCS(=O)(=O)N1CCC(NCC2CNc3cc(C)nn3C2)CC1 (stereo not shown)	-	-8.203
CCC(C)(C)C(=O)N1CCN(C2=NCC(C)S2)CC1 (stereo not shown)	1.298	-1.847